# Screening data

Source: PubChem BioAssay AID1159506 (NCATS, 2015).

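Genome-wide siRNA knockdown in TC32 Ewing sarcoma cells, comparing luciferase light from an NR0B1-promoter reporter with a CMV-promoter reporter 48 hours after transfection.
Each siRNA was applied at 20 nM.
A z-score of the log NR0B1-over-CMV signal, less the median of siRNAs with the same seed; more negative means a stronger specific loss of the NR0B1 reporter.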

This is part of the screen; most of the strongest results are not listed here.
Sequences are the guide (antisense) strand, without overhang.

{"sirna": "UGCACAUUAAGGAUGACAG", "target gene": "TMEM25", "seed-corrected z-score": "1.461"}
{"sirna": "AAAACGAUGAAACAACACC", "target gene": "CCNL1", "seed-corrected z-score": "0.3945"}
{"sirna": "UUCGAGACCAACCAAUAUG", "target gene": "MBTD1", "seed-corrected z-score": "0.03057"}
{"sirna": "UCAUUGAUCUCCACUGUUU", "target gene": "CENPO", "seed-corrected z-score": "0.2471"}
{"sirna": "UUCCCGAUCACUCUCACAG", "target gene": "HUWE1", "seed-corrected z-score": "-0.2695"}
{"sirna": "AUGCGGAACAUAUAGCACC", "target gene": "KMT2B", "seed-corrected z-score": "-1.053"}
{"sirna": "AUCAGAACCAGCAUUGUUG", "target gene": "MBL2", "seed-corrected z-score": "0.2657"}
{"sirna": "UCAGGUAUAAGUUGCAGGG", "target gene": "LYRM4", "seed-corrected z-score": "-0.3609"}
{"sirna": "UCAAGGUUCUUUACUAUUC", "target gene": "CHAT", "seed-corrected z-score": "0.8028"}
{"sirna": "AAAGGAGAAGCCGAUCUGC", "target gene": "PLEKHM1", "seed-corrected z-score": "0.6957"}
{"sirna": "UUCAAGAUAAGCUAGUGAC", "target gene": "VEGFA", "seed-corrected z-score": "0.1507"}
{"sirna": "GAAGUCAAACUGGGCCUGG", "target gene": "GRAP", "seed-corrected z-score": "0.4391"}
{"sirna": "UAGCAGAUAAGGAACAGGG", "target gene": "BLCAP", "seed-corrected z-score": "1.096"}
{"sirna": "AACCUUGUCCCUUUGCGGG", "target gene": "HCFC1R1", "seed-corrected z-score": "-0.8627"}
{"sirna": "AAUAGGAUGAGGUAACUUC", "target gene": "FGD6", "seed-corrected z-score": "-0.2695"}
{"sirna": "UGGAGUCCCAAUAACAGGC", "target gene": "TAF4B", "seed-corrected z-score": "-1.475"}
{"sirna": "UGUAUGAAAAAGAUGUGAC", "target gene": "CHST9", "seed-corrected z-score": "0.2307"}
{"sirna": "UUUGCAGACAAUGCUGAGC", "target gene": "RNASE6", "seed-corrected z-score": "-0.6057"}
{"sirna": "UUAGUAGCUUCUCGGUUCC", "target gene": "DDX3X", "seed-corrected z-score": "-0.08978"}
{"sirna": "UCCCUGAUCAGAAAGGAGG", "target gene": "BARHL1", "seed-corrected z-score": "-0.2183"}
{"sirna": "UAAAACUAAAGUUCUGAGC", "target gene": "NUPL2", "seed-corrected z-score": "-0.8728"}
{"sirna": "AUAAGGAUCACAACAAGAG", "target gene": "OR51A7", "seed-corrected z-score": "0.2425"}
{"sirna": "AAUCUGGUCGGAGUUAUUC", "target gene": "MYCBPAP", "seed-corrected z-score": "-0.782"}
{"sirna": "AAAUGCUUGAUCAUUCUGG", "target gene": "NEK7", "seed-corrected z-score": "0.541"}
{"sirna": "UAAGUGGACUGGUCAAAGG", "target gene": "PCDHAC2", "seed-corrected z-score": "0.6202"}
{"sirna": "UGAGUUCUCGGUAAAACAC", "target gene": "CSRNP2", "seed-corrected z-score": "-0.8463"}
{"sirna": "AACUUGUCCAUUCAAUACC", "target gene": "WDR11", "seed-corrected z-score": "-0.2594"}
{"sirna": "UAUGAUGCAAUCCCUGCCC", "target gene": "CLPSL2", "seed-corrected z-score": "0.1732"}
{"sirna": "UCAUGUCUUAGACAAGAAC", "target gene": "ZNF799", "seed-corrected z-score": "-0.404"}
{"sirna": "AAUGUAAGCAAAGACAAUG", "target gene": "GRIA3", "seed-corrected z-score": "-0.1008"}
{"sirna": "UCACUGAGUCAUUCAAAGC", "target gene": "DNAJC12", "seed-corrected z-score": "0.1005"}
{"sirna": "UGACAUACCGUCCACAUCC", "target gene": "BRAP", "seed-corrected z-score": "0.3413"}
{"sirna": "UUAGUAUAUAGGAGGAAGC", "target gene": "PNLIP", "seed-corrected z-score": "-0.2773"}
{"sirna": "UCAUGUGCUGCAGAUGUUC", "target gene": "SDHAF2", "seed-corrected z-score": "1.56"}
{"sirna": "ACCAUAAUAACUGAAAGCC", "target gene": "SRSF7", "seed-corrected z-score": "0.7391"}
{"sirna": "AAAGCGAUGACAUUAUUCC", "target gene": "RGAG1", "seed-corrected z-score": "-0.4614"}